The text below walks through data of publication PMC10476466.

Sequences of proteins named here, by UniProt entry; tags and fusion partners are left off.
UniProt P06748: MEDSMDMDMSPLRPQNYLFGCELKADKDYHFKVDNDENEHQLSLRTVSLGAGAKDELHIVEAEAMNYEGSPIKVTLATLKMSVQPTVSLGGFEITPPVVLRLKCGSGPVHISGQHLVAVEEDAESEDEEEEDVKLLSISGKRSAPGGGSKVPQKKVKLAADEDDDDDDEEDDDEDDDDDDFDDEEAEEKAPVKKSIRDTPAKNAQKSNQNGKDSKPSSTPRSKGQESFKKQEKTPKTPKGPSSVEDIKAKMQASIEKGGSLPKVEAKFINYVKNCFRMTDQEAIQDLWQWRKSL

Results are given in words; binding and its absence hold for the method and conditions named. In cells and extracts the contact can be indirect. A yes stands for co-enrichment or nearness to the bait. Other partners may have been found.

The target of this assay is T1, phospholipase D1 (PLD1) (UniProt Q13393).
T1 sequence: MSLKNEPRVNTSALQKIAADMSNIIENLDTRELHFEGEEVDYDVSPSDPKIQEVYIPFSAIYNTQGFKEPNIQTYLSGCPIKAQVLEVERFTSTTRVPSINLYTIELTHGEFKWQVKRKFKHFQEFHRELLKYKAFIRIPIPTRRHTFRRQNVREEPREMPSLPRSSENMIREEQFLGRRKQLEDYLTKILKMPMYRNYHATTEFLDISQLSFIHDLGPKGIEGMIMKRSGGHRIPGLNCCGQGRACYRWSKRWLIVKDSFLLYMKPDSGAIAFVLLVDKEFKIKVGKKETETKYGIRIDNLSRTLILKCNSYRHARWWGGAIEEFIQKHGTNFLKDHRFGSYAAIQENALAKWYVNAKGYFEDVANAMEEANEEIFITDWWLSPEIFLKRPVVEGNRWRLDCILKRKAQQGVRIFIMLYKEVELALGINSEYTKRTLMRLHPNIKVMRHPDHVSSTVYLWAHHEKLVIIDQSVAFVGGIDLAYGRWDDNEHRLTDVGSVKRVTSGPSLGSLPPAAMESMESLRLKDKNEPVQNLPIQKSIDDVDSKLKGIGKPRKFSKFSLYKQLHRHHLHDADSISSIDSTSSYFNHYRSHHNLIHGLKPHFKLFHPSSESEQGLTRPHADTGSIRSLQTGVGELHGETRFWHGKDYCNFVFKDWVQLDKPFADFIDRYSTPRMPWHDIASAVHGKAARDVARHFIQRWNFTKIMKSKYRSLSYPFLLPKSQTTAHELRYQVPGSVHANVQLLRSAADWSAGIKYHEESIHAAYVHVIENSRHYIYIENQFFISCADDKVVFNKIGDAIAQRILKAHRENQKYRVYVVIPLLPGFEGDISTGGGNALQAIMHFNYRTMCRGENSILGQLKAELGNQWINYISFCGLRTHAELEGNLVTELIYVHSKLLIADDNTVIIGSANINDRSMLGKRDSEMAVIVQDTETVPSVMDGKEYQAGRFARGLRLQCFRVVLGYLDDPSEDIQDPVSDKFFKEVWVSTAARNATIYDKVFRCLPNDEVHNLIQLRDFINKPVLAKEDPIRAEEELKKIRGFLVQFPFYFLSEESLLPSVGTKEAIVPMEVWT
Kind of assay: affinity purification with mass spectrometry; intranuclear immunoprecipitation-mass spectrometry (IPMS) of PLD1 in PLD1 overexpression cell lines.

With “nucleophosmin 1 (NPM1) (from UniProt P06748 1-294)”, the binding result is listed as “binds”.
